No constants are given. Whether binding was seen depends on the method and setting. In cells and extracts the contact can be indirect. Some entries that bind do so weakly or less than the wild type.
How the values were obtained:
[1] = biological target: Focal adhesion kinase 1 (human (endogenous in HCT-116)) (UniProt Q05397); test: co-IP; anti-FAK IP from lysate of EGF-stimulated HCT-116 cells, Western blot for zyxin, nesprin-1 and desmoplakin; IgG control
[2] = biological target: Nesprin-1 (human (endogenous in HCT-116)) (UniProt Q8NF91); test: co-IP; reciprocal IP with polyclonal antibodies against zyxin or nesprin-1 from HCT-116 lysate (1500 µg total protein), Western blot for FAK; IgG control
[3] = biological target: T1, Zyxin (human (endogenous in HCT-116)) (UniProt Q15942); test: as above
T1 sequence: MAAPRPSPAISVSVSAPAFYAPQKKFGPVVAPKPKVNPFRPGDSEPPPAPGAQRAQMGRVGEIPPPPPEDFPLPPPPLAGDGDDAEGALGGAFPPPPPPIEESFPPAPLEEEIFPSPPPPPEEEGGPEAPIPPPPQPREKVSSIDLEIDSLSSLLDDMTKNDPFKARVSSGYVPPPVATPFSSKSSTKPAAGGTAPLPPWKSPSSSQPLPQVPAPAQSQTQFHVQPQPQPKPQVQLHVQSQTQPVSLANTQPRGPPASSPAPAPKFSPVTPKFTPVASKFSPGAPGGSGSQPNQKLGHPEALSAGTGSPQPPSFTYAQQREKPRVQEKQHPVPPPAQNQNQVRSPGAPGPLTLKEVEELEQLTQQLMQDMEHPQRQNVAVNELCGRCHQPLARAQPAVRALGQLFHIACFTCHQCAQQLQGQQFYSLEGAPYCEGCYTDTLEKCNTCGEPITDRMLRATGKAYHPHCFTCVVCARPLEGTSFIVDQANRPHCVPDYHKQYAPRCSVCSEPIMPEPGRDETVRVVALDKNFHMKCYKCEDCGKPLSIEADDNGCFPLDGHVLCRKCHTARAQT

The chains behind the UniProt entries cited, without tags or fusion partners.
UniProt Q05397: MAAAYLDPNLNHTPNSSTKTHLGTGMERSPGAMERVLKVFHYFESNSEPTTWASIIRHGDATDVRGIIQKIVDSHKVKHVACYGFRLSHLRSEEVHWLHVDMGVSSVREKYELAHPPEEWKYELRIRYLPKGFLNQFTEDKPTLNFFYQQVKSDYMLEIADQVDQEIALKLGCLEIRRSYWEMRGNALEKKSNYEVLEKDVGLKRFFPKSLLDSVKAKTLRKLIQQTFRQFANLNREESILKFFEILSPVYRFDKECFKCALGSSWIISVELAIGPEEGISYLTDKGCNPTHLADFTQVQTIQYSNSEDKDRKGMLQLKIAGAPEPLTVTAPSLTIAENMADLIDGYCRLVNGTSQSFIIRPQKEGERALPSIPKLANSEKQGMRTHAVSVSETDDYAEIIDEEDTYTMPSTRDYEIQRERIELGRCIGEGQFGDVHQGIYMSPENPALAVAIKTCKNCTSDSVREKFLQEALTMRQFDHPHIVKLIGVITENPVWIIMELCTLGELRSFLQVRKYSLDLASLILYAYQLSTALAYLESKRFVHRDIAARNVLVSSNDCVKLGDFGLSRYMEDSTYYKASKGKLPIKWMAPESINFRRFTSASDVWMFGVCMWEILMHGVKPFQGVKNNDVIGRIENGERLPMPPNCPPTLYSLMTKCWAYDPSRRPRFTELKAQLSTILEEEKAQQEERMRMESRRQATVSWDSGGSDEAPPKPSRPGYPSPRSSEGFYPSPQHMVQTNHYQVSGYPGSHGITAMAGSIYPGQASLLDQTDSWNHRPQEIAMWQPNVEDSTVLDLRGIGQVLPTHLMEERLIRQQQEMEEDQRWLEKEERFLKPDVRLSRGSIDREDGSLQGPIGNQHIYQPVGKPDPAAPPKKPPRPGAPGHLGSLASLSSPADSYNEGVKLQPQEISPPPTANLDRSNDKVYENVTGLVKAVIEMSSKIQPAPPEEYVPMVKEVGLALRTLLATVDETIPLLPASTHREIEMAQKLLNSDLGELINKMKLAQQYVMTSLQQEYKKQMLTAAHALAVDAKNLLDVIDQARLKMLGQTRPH

Row | binding [1] | binding [2] | binding [3] | Substance
1 | binds |  |  | Desmoplakin (from UniProt P15924-1 1-2871)
2 |  | binds | binds | Focal adhesion kinase 1 (from UniProt Q05397 1-1052)
3 | binds |  |  | Nesprin-1 (from UniProt Q8NF91 1-8797)
